PubChem BioAssay AID1159596, NIAID – 2016

Purpose: 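Genes whose silencing alters the TNF reporter response of macrophage-like cells to peptidoglycan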 (primary screen)
Cells: human THP1 B5 monocytic reporter cells made macrophage-like with PMA
Reagent: single siRNA against human genes
Duration: assayed 48 to 72 hours after siRNA transfection; peptidoglycan stimulation lasted 4 hours
Challenge: Staphylococcus aureus peptidoglycan for 4 hours; dose not given
Read-out: 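TNF-alpha promoter firefly/renilla luciferase ratio after 4 h s. aureus peptidoglycan; plate median/MAD scaled, robust z versus negative control wells, mean of replicates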
Reading the numbers: TNF reporter z-score: higher = stronger TNF promoter reporter response to peptidoglycan
Active means: In these data the active calls have TNF reporter z-score, replicate mean at about -1.5 or lower, or at about 1.5 or higher
Meaning of the calls: active = reporter shifted beyond cut (either direction); inactive = reporter near control level
The deposit covers 756 reagents; below is an unselected part. In the full data, 143 (19%) got an active call. 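Active means the reporter moved past about ±1.5 in either direction; scores are per single siRNA, not per gene; peptidoglycan dose not given.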 Reagents against one gene are numbered here. Reagent sequences are not shown. Not stated in the record: the amount of reagent.

The first 2 records, ahead of the listing:
TIRAP (TIR domain containing adaptor protein) #1 | TNF reporter z-score, replicate mean = -4.89; activity call = active
TIRAP (TIR domain containing adaptor protein) #2 | TNF reporter z-score, replicate mean = -5.42; activity call = active

Results, from the first entry:
TIRAP (TIR domain containing adaptor protein) #1 | TNF reporter z-score, replicate mean = -4.89; activity call = active
TIRAP (TIR domain containing adaptor protein) #2 | TNF reporter z-score, replicate mean = -5.42; activity call = active
TIRAP (TIR domain containing adaptor protein) #3 | TNF reporter z-score, replicate mean = -5.83; activity call = active
TIRAP (TIR domain containing adaptor protein) #4 | TNF reporter z-score, replicate mean = -0.0224; activity call = inactive
TIRAP (TIR domain containing adaptor protein) #5 | TNF reporter z-score, replicate mean = -0.933; activity call = inactive
TIRAP (TIR domain containing adaptor protein) #6 | TNF reporter z-score, replicate mean = -5.23; activity call = active
IL33R (interleukin 33 receptor) #1 | TNF reporter z-score, replicate mean = -0.398; activity call = inactive
IL33R (interleukin 33 receptor) #2 | TNF reporter z-score, replicate mean = -1.73; activity call = active
IL33R (interleukin 33 receptor) #3 | TNF reporter z-score, replicate mean = -0.643; activity call = inactive
IL33R (interleukin 33 receptor) #4 | TNF reporter z-score, replicate mean = 0.763; activity call = inactive
IL33R (interleukin 33 receptor) #5 | TNF reporter z-score, replicate mean = -1.59; activity call = active
IL33R (interleukin 33 receptor) #6 | TNF reporter z-score, replicate mean = -0.163; activity call = inactive
MAPK11 (mitogen-activated protein kinase 11) #1 | TNF reporter z-score, replicate mean = -0.414; activity call = inactive
MAPK11 (mitogen-activated protein kinase 11) #2 | TNF reporter z-score, replicate mean = -0.628; activity call = inactive
MAPK11 (mitogen-activated protein kinase 11) #3 | TNF reporter z-score, replicate mean = -0.136; activity call = inactive
MAPK11 (mitogen-activated protein kinase 11) #4 | TNF reporter z-score, replicate mean = 0.0296; activity call = inactive
MAPK11 (mitogen-activated protein kinase 11) #5 | TNF reporter z-score, replicate mean = 0.0829; activity call = inactive
MAPK11 (mitogen-activated protein kinase 11) #6 | TNF reporter z-score, replicate mean = -0.747; activity call = inactive
MAP2K2 (mitogen-activated protein kinase kinase 2) #1 | TNF reporter z-score, replicate mean = 0.06; activity call = inactive
MAP2K2 (mitogen-activated protein kinase kinase 2) #2 | TNF reporter z-score, replicate mean = -0.0846; activity call = inactive
MAP2K2 (mitogen-activated protein kinase kinase 2) #3 | TNF reporter z-score, replicate mean = -1.3; activity call = inactive
MAP2K2 (mitogen-activated protein kinase kinase 2) #4 | TNF reporter z-score, replicate mean = -0.106; activity call = inactive
MAP2K2 (mitogen-activated protein kinase kinase 2) #5 | TNF reporter z-score, replicate mean = 0.232; activity call = inactive
MAP2K2 (mitogen-activated protein kinase kinase 2) #6 | TNF reporter z-score, replicate mean = 0.382; activity call = inactive
SIGIRR (single Ig and TIR domain containing) #1 | TNF reporter z-score, replicate mean = -0.46; activity call = inactive
SIGIRR (single Ig and TIR domain containing) #2 | TNF reporter z-score, replicate mean = 0.451; activity call = inactive
SIGIRR (single Ig and TIR domain containing) #3 | TNF reporter z-score, replicate mean = -1.08; activity call = inactive
SIGIRR (single Ig and TIR domain containing) #4 | TNF reporter z-score, replicate mean = -0.159; activity call = inactive
SIGIRR (single Ig and TIR domain containing) #5 | TNF reporter z-score, replicate mean = 1.75; activity call = active
SIGIRR (single Ig and TIR domain containing) #6 | TNF reporter z-score, replicate mean = -0.36; activity call = inactive
MAP3K14 (mitogen-activated protein kinase kinase kinase 14) #1 | TNF reporter z-score, replicate mean = 0.484; activity call = inactive
MAP3K14 (mitogen-activated protein kinase kinase kinase 14) #2 | TNF reporter z-score, replicate mean = 1.68; activity call = active
MAP3K14 (mitogen-activated protein kinase kinase kinase 14) #3 | TNF reporter z-score, replicate mean = -1.21; activity call = inactive
MAP3K14 (mitogen-activated protein kinase kinase kinase 14) #4 | TNF reporter z-score, replicate mean = 0.669; activity call = inactive
MAP3K14 (mitogen-activated protein kinase kinase kinase 14) #5 | TNF reporter z-score, replicate mean = 1.29; activity call = inactive
MAP3K14 (mitogen-activated protein kinase kinase kinase 14) #6 | TNF reporter z-score, replicate mean = -1.16; activity call = inactive
